Measured values published in the supplement of paper PMC10849652.
The other results are listed elsewhere or left out. Residues, ends and D or L forms follow the SMILES beside them. *: point of attachment. Cbz = O=C(OCc1ccccc1)*

Amino acid sequences for entries named in this document (tags omitted). A change or cut given only in a name is not applied to a line headed by its entry.
UniProt Q7Z4H8: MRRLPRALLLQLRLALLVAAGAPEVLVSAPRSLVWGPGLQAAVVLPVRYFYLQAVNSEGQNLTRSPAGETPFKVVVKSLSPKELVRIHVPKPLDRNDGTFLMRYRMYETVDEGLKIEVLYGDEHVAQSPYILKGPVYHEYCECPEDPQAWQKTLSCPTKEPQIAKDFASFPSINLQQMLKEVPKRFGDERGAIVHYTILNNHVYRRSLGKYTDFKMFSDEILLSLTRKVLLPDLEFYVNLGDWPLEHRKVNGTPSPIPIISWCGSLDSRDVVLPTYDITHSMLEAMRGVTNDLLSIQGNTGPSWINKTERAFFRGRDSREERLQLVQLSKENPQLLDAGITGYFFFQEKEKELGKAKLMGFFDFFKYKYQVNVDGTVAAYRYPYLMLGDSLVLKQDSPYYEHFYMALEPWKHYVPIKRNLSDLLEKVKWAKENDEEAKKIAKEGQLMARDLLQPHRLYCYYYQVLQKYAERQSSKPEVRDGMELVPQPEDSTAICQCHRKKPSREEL
UniProt Q8N490: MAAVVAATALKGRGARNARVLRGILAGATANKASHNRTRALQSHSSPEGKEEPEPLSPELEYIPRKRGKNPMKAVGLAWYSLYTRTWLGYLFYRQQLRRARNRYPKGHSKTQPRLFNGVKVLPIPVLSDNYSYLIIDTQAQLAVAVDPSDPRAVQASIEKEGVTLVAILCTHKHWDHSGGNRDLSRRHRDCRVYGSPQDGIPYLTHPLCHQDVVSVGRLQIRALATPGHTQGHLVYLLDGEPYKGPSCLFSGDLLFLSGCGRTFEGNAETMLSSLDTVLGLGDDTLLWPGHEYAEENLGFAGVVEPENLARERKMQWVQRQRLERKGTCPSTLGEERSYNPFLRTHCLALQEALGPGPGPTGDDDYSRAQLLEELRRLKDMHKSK
UniProt Q9NQ55: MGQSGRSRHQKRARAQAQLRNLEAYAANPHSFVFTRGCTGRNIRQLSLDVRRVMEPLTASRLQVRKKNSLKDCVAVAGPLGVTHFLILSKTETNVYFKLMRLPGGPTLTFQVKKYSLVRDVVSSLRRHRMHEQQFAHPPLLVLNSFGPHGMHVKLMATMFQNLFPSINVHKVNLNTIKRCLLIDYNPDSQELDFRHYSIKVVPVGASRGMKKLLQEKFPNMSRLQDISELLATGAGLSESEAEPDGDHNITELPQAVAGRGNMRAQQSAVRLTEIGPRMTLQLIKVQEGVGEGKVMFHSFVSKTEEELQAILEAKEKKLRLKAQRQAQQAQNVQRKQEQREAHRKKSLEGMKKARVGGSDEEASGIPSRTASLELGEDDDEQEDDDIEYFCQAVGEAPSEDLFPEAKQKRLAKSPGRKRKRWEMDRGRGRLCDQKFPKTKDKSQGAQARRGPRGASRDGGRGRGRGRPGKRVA
UniProt P16435: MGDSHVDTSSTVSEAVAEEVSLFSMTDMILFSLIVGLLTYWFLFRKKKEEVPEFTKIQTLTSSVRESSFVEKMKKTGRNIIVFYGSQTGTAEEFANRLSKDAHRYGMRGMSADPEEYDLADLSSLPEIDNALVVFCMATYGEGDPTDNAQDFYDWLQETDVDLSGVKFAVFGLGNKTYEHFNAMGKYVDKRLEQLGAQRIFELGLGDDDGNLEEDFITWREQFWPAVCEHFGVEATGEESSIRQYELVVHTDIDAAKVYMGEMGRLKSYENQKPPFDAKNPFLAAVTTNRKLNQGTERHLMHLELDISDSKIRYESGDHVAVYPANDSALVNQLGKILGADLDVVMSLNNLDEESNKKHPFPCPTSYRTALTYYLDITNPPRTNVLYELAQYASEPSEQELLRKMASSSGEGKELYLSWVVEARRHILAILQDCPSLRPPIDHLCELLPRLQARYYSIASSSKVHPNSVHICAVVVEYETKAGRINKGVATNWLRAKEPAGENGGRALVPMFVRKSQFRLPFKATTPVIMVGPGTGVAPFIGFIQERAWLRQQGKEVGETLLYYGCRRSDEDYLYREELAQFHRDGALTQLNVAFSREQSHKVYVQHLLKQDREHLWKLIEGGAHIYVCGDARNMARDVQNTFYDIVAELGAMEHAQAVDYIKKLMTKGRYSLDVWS
UniProt Q02809: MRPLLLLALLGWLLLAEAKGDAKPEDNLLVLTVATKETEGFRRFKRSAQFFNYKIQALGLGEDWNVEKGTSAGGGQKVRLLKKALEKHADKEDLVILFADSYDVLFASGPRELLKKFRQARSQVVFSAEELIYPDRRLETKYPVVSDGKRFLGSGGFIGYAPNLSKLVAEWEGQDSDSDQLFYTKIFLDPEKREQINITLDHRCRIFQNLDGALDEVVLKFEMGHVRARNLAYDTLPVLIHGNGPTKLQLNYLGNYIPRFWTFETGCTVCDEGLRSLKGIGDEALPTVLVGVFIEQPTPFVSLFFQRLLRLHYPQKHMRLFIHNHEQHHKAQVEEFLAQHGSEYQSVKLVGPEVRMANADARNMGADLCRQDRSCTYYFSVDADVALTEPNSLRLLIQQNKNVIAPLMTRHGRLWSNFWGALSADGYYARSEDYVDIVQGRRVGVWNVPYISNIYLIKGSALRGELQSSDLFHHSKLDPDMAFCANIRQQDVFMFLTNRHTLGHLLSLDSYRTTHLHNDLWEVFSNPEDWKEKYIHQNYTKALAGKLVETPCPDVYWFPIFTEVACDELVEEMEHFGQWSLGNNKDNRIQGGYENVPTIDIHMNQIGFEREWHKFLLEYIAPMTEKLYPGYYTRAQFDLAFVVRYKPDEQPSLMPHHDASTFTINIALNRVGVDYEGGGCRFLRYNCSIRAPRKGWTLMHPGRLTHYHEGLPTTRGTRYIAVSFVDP
UniProt Q969H6: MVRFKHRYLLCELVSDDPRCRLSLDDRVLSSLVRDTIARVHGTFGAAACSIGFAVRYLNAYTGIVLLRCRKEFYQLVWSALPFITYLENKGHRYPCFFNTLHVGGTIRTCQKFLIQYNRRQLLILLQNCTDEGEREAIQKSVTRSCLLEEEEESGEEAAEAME
UniProt Q9H8W4: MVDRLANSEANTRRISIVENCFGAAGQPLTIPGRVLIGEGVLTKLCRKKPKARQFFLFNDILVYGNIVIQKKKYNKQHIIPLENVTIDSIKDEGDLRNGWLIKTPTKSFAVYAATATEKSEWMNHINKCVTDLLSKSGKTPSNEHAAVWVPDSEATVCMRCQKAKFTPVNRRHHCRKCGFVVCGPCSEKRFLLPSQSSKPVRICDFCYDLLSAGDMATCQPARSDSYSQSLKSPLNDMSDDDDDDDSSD
UniProt O15031: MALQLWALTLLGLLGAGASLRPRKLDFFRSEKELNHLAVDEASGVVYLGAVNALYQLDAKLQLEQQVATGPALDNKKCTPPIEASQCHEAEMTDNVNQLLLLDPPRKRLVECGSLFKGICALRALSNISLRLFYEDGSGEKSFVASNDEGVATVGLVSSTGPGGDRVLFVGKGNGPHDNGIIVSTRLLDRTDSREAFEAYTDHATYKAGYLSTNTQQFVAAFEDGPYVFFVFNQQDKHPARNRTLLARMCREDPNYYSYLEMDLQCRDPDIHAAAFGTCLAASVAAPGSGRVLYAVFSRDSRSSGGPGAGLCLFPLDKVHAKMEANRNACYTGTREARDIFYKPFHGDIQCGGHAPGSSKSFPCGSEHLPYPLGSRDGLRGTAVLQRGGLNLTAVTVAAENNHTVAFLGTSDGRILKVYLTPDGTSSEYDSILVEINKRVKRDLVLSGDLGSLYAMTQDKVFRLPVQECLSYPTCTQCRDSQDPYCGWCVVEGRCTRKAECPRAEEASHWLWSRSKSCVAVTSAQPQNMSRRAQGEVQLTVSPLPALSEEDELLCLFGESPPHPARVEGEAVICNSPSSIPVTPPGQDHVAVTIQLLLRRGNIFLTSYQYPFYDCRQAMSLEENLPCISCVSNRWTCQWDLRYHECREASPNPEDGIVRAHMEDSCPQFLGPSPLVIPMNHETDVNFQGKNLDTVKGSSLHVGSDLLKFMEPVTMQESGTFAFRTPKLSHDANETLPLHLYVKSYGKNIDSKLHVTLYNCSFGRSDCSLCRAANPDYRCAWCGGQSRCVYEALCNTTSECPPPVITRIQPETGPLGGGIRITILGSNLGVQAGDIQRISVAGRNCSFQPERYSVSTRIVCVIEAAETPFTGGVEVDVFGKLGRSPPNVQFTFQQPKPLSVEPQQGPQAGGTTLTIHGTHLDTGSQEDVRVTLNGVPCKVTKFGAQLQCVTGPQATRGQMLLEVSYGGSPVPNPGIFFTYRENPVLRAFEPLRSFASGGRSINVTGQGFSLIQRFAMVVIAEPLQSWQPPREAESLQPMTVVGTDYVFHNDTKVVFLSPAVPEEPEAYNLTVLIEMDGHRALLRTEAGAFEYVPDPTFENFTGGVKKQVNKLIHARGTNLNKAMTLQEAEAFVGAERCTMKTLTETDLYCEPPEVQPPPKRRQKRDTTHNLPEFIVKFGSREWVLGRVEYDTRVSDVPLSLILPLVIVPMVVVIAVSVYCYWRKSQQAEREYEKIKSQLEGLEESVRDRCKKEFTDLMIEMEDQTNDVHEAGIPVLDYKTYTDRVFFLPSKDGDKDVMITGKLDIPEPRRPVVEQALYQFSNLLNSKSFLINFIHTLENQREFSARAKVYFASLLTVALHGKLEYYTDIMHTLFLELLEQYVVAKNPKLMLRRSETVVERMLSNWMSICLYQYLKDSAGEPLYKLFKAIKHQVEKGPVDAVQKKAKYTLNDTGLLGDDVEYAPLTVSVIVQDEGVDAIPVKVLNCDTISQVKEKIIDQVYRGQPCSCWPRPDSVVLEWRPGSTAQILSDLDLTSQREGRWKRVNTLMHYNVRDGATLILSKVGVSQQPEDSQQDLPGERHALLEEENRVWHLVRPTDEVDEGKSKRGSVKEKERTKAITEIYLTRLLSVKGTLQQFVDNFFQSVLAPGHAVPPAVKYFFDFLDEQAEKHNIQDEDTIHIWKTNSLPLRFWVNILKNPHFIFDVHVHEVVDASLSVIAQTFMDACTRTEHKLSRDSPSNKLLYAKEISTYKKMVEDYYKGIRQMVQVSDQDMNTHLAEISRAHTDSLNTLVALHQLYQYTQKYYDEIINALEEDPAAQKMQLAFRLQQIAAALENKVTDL
UniProt O43447: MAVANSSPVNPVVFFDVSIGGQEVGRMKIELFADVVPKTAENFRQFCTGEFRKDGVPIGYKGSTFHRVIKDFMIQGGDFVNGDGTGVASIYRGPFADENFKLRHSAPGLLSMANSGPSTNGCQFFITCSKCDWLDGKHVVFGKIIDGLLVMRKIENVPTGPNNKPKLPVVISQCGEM
UniProt Q6P1K2: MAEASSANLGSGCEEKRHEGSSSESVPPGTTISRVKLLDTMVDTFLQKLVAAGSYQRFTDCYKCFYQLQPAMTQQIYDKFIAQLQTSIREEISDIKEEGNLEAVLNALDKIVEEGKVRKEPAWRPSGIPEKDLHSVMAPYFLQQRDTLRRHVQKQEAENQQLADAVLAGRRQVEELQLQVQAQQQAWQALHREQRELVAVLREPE
UniProt Q9NVU0: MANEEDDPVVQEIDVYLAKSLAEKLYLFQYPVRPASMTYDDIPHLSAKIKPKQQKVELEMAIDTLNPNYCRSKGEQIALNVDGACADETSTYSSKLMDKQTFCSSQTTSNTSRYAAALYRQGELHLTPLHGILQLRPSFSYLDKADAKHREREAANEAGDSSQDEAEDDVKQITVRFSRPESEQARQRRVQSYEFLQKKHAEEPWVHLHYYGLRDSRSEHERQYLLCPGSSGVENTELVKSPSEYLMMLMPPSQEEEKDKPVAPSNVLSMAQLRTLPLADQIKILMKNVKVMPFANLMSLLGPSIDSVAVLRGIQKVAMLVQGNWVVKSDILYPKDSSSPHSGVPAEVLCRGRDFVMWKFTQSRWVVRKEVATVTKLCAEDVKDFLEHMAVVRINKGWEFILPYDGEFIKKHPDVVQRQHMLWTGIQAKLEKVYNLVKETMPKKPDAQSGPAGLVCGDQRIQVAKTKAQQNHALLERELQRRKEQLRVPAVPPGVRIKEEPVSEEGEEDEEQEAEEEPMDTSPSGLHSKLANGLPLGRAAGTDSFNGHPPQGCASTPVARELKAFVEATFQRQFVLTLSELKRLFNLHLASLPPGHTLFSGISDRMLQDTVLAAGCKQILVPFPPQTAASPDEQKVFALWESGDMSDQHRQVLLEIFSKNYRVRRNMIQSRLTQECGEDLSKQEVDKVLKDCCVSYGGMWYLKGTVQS
UniProt Q8IY26: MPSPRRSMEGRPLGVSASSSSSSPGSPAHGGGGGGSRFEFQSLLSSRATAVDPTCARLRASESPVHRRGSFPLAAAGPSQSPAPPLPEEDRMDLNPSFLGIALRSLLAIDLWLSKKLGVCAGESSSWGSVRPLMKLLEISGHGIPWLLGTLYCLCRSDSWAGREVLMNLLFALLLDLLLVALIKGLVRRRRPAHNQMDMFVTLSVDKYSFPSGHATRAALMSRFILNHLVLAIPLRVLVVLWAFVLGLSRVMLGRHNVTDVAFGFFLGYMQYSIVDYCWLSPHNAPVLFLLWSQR

Legend:
Assay in all cases: log2 fold change, soluble protein after heating vs DMSO (PISA); higher = thermal stabilisation; K562 cells, 10 uM, 30 min; active = over 0.2 and 3.5 SD of the protein, either way, in both replicates (recomputed)
erlotinib = compound: C#Cc1cccc(Nc2ncnc3cc(OCCOC)c(OCCOC)cc23)c1 [erlotinib]
How it was run: (§1)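 K562 cells at 2×10^6 cells/mL were treated with 10 μM compound for 30 min. Aliquots were heated for 3 min across 48°C-58°C, pooled, and extracted in PBS with 0.5% NP-40 at 4°C; soluble protein was the supernatant after 21,000xg for 90 min. Soluble protein was quantified by TMTpro 16plex LC-MS/MS with channel sums equalised, and reported as log2 fold change in thermal stability against DMSO controls, with values from duplicates.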

[1] = compound: C/C(=N\NC(=O)C1=CC(=CC=C1)S(=O)(=O)N2CCOCC2)/C3=C(C=CC(=C3)Cl)O
How it was run: as §1

[2] = compound: C1=CC(=C(C=C1Cl)C2=NC3=NC=CN=C3C(=N2)NC4=CC=NC=C4)F
How it was run: as §1

[3] = compound: C1=CC(=CC=C1C2=NC3=C(N2)C=C(C=C3)C(=O)N)OC4=CC=C(C=C4)Cl
How it was run: as §1

[4] = compound: C1=CC2=C(C=CC(=C2)/C=C\3/C(=O)NC(=NCC4=CC=CS4)S3)N=C1
How it was run: as §1

[5] = compound: C1=CC2=NC=CN=C2C=C1/C=C/3\C(=O)NC(=O)S3
How it was run: as §1

[6] = compound: C1=CC=C(C=C1)C2=NC(=C(N2)C3=CC=NC=C3)C4=CC(=C(C=C4)Cl)O
How it was run: as §1

[7] = compound: C1=CC=C2C(=C1)C3=NNC4=CC=CC(=C43)C2=O
How it was run: as §1

[8] = compound: C1CCN(C1)C(=O)NC2=CC=CC(=C2)NC3=NC=C(C(=N3)NCCC4=CN=CN4)Br
How it was run: as §1

[9] = compound: C1CN(CCC1(CC2=CC=C(C=C2)Cl)N)C3=NC=NC4=C3C=CN4
How it was run: as §1

IRAK-1-4 Inhibitor I = compound: C1COCCN1CCN2C3=CC=CC=C3N=C2NC(=O)C4=CC(=CC=C4)[N+](=O)[O-] [IRAK-1-4 Inhibitor I]
How it was run: as §1

ibrutinib = compound: C=CC(=O)N1CCC[C@@H](n2nc(-c3ccc(Oc4ccccc4)cc3)c3c(N)ncnc32)C1 [ibrutinib]
How it was run: as §1

[10] = compound: CC(=O)c1cnc2ccc(-c3cc(Cl)c(O)c(Cl)c3)nc2c1N[C@H]1CC[C@H](CN(C)C)CC1
How it was run: as §1

ralimetinib = compound: CC(C)(C)Cn1c(N)nc2ccc(-c3[nH]c(C(C)(C)C)nc3-c3ccc(F)cc3)nc21 [ralimetinib]
How it was run: as §1

[11] = compound: CC(C)(O)CC(=O)NCCn1ccc2ncnc(Nc3ccc(Oc4cccc(C(F)(F)F)c4)c(Cl)c3)c21
How it was run: as §1

[12] = compound: CC(C)C1=C2N=C(C=C(N2N=C1)NCC3=CC=CC=C3)NCCCCCCN
How it was run: as §1

[13] = compound: CC(C)C[C@@H](C=O)NC(=O)[C@H](CC(C)C)NC(=O)[C@H](CC(C)C)NC(=O)OCc1ccccc1
How it was run: as §1

pinometostat = compound: CC(C)N(C[C@H]1O[C@@H](n2cnc3c(N)ncnc32)[C@H](O)[C@@H]1O)[C@H]1C[C@@H](CCc2nc3cc(C(C)(C)C)ccc3[nH]2)C1 [pinometostat]
How it was run: as §1

[14] = compound: CC1=C(C(CC(=O)N1)C2=CC=C(C=C2)C(F)(F)F)C(=O)NC3=C(C=C4C(=C3)C=NN4)F
How it was run: as §1

[15] = compound: CC1=C(C2=C(C=C1)C(=O)C3=CC=CC=C3N2CCCN)C
How it was run: as §1

Measured: log2 fold change

POGLUT3 (UniProt Q7Z4H8)
inactive: erlotinib -0.041 | [1] 0.031 | [2] 0.024 | [3] 0.027 | [4] -0.013 | [5] 0.005 | [6] -0.037 | [7] 0.033 | [8] -0.018 | [9] -0.015 | IRAK-1-4 Inhibitor I -0.051 | ibrutinib -0.038 | [10] -0.005 | ralimetinib -0.02 | [11] -0.012 | [12] -0.065 | [13] 0.028 | pinometostat 0.003 | [14] 0.039 | [15] 0.01

PNKD isoform 3 (UniProt Q8N490)
inactive: erlotinib 0.026 | [1] 0.01 | [2] -0.092 | [3] -0.007 | [4] 0.089 | [5] -0.104 | [6] 0.02 | [7] -0.015 | [8] -0.022 | [9] 0.013 | IRAK-1-4 Inhibitor I 0.018 | ibrutinib 0.177 | [10] 0.013 | ralimetinib 0.088 | [11] 0.025 | [12] -0.045 | [13] 0.126 | pinometostat -0.014 | [14] 0.005 | [15] 0.101

PNKD isoform 2 (UniProt Q8N490)
inactive: erlotinib 0.047 | [1] 0.001 | [2] -0.015 | [3] 0.027 | [4] -0.045 | [5] -0.001 | [6] 0.014 | [7] 0.008 | [8] -0.011 | [9] -0.035 | IRAK-1-4 Inhibitor I 0.055 | ibrutinib 0.037 | [10] -0.045 | ralimetinib -0.078 | [11] -0.072 | [12] -0.073 | [13] -0.011 | pinometostat 0.109 | [14] 0.049 | [15] 0.102

POLR2F (UniProt P61218)
inactive: erlotinib -0.005 | [1] 0.065 | [2] 0.144 | [3] -0.028 | [4] -0.255 | [5] 0.116 | [6] -0.066 | [7] 0.031 | [8] -0.27 | [9] 0.232 | IRAK-1-4 Inhibitor I -0.117 | ibrutinib 0.012 | [10] 0.346 | ralimetinib 0.057 | [11] -0.083 | [12] 0.214 | [13] 0.125 | pinometostat -0.218 | [14] 0.092 | [15] -0.017

PPAN isoform 3 (UniProt Q9NQ55)
inactive: erlotinib -0.041 | [1] -0.004 | [2] -0.417 | [3] -0.049 | [4] -0.117 | [5] 0.026 | [6] -0.104 | [7] 0.082 | [8] -0.117 | [9] -0.384 | IRAK-1-4 Inhibitor I -0.102 | ibrutinib 0.009 | [10] 0.231 | ralimetinib 0.171 | [11] 0.111 | [12] 0.328 | [13] 0.091 | pinometostat 0.429 | [14] 0.167 | [15] -0.814

Three consecutive entries already listed, for reference:
PNKD isoform 2 (UniProt Q8N490)
inactive: erlotinib 0.047 | [1] 0.001 | [2] -0.015 | [3] 0.027 | [4] -0.045 | [5] -0.001 | [6] 0.014 | [7] 0.008 | [8] -0.011 | [9] -0.035 | IRAK-1-4 Inhibitor I 0.055 | ibrutinib 0.037 | [10] -0.045 | ralimetinib -0.078 | [11] -0.072 | [12] -0.073 | [13] -0.011 | pinometostat 0.109 | [14] 0.049 | [15] 0.102

POLR2F (UniProt P61218)
inactive: erlotinib -0.005 | [1] 0.065 | [2] 0.144 | [3] -0.028 | [4] -0.255 | [5] 0.116 | [6] -0.066 | [7] 0.031 | [8] -0.27 | [9] 0.232 | IRAK-1-4 Inhibitor I -0.117 | ibrutinib 0.012 | [10] 0.346 | ralimetinib 0.057 | [11] -0.083 | [12] 0.214 | [13] 0.125 | pinometostat -0.218 | [14] 0.092 | [15] -0.017

PPAN isoform 3 (UniProt Q9NQ55)
inactive: erlotinib -0.041 | [1] -0.004 | [2] -0.417 | [3] -0.049 | [4] -0.117 | [5] 0.026 | [6] -0.104 | [7] 0.082 | [8] -0.117 | [9] -0.384 | IRAK-1-4 Inhibitor I -0.102 | ibrutinib 0.009 | [10] 0.231 | ralimetinib 0.171 | [11] 0.111 | [12] 0.328 | [13] 0.091 | pinometostat 0.429 | [14] 0.167 | [15] -0.814

(continued)

POR (UniProt P16435)
inactive: erlotinib 0.004 | [1] 0.07 | [2] 0.045 | [3] -0.013 | [4] -0.011 | [5] 0.017 | [6] 0.016 | [7] 0.02 | [8] 0.002 | [9] 0.076 | IRAK-1-4 Inhibitor I 0.024 | ibrutinib -0.003 | [10] -0.051 | ralimetinib -0.014 | [11] -0.058 | [12] 0.049 | [13] -0.005 | pinometostat -0.013 | [14] -0.045 | [15] -0.026

PLOD1 isoform 2 (UniProt Q02809)
inactive: erlotinib -0.072 | [1] -0.045 | [2] -0.126 | [3] 0.003 | [4] -0.002 | [5] -0.029 | [6] -0.062 | [7] 0.019 | [8] -0.035 | [9] -0.152 | IRAK-1-4 Inhibitor I -0.112 | ibrutinib -0.041 | [10] 0.021 | ralimetinib 0.025 | [11] 0.035 | [12] -0.016 | [13] 0.025 | pinometostat 0.08 | [14] 0.024 | [15] -0.04

POP5 (UniProt Q969H6)
inactive: erlotinib -0.098 | [1] 0.032 | [2] -0.003 | [3] 0.082 | [4] -0.071 | [5] 0 | [6] -0.021 | [7] 0.025 | [8] -0.009 | [9] -0.022 | IRAK-1-4 Inhibitor I 0.005 | ibrutinib 0.083 | [10] -0.004 | ralimetinib 0.019 | [11] -0.094 | [12] 0.1 | [13] -0.022 | pinometostat -0.043 | [14] -0.028 | [15] -0.065

PPAT (UniProt Q06203)
inactive: erlotinib 0.003 | [1] -0.015 | [2] 0.03 | [3] 0.004 | [4] 0.036 | [5] 0.002 | [6] -0.012 | [7] -0.012 | [8] -0.015 | [9] 0.06 | IRAK-1-4 Inhibitor I 0.004 | ibrutinib 0.013 | [10] 0 | ralimetinib -0.075 | [11] -0.017 | [12] 0.08 | [13] -0.022 | pinometostat -0.051 | [14] 0.001 | [15] 0.037

PLEKHF2 (UniProt Q9H8W4)
inactive: erlotinib 0.099 | [1] 0.114 | [2] 0.046 | [3] 0 | [4] 0.054 | [5] 0 | [6] 0.029 | [7] -0.024 | [8] -0.035 | [9] 0.046 | IRAK-1-4 Inhibitor I -0.048 | ibrutinib 0.047 | [10] -0.134 | ralimetinib 0 | [11] -0.034 | [12] -0.144 | [13] 0.052 | pinometostat -0.104 | [14] 0.055 | [15] 0.071

POLR3C (UniProt Q9BUI4)
inactive: erlotinib -0.002 | [1] 0.008 | [2] -0.002 | [3] 0.005 | [4] 0.036 | [5] 0.021 | [6] -0.028 | [7] -0.03 | [8] -0.089 | [9] 0.04 | IRAK-1-4 Inhibitor I 0.045 | ibrutinib -0.023 | [10] -0.026 | ralimetinib -0.031 | [11] 0.02 | [12] -0.016 | [13] 0.017 | pinometostat -0.044 | [14] 0.004 | [15] 0.075

PLXNB2 (UniProt O15031)
inactive: erlotinib 0.025 | [1] 0.018 | [2] 0.022 | [3] 0.003 | [4] 0.035 | [5] 0.016 | [6] -0.001 | [7] 0.005 | [8] -0.032 | [9] 0.043 | IRAK-1-4 Inhibitor I -0.007 | ibrutinib 0.025 | [10] -0.069 | ralimetinib -0.006 | [11] -0.053 | [12] 0.003 | [13] 0.02 | pinometostat 0.058 | [14] -0.069 | [15] 0.084

PPIH (UniProt O43447)
inactive: erlotinib 0.05 | [1] 0.022 | [2] 0.088 | [3] -0.026 | [4] 0.031 | [5] 0.027 | [6] 0.012 | [7] 0.019 | [8] -0.003 | [9] -0.002 | IRAK-1-4 Inhibitor I 0.036 | ibrutinib -0.054 | [10] -0.04 | ralimetinib -0.041 | [11] -0.095 | [12] -0.001 | [13] -0.017 | pinometostat -0.02 | [14] 0.003 | [15] 0.025

PMF1 (UniProt Q6P1K2)
inactive: erlotinib 0.007 | [1] 0.096 | [2] 0.027 | [3] 0.041 | [4] 0.045 | [5] 0.078 | [6] -0.03 | [7] -0.034 | [8] -0.14 | [9] -0.052 | IRAK-1-4 Inhibitor I -0.082 | ibrutinib 0.072 | [10] -0.019 | ralimetinib 0.023 | [11] -0.109 | [12] -0.012 | [13] 0.035 | pinometostat 0.004 | [14] -0.05 | [15] -0.029

POLR3E (UniProt Q9NVU0)
inactive: erlotinib 0.063 | [1] 0.108 | [2] -0.136 | [3] 0.043 | [4] 0.037 | [5] 0.07 | [6] -0.053 | [7] 0.021 | [8] -0.124 | [9] -0.186 | IRAK-1-4 Inhibitor I -0.131 | ibrutinib -0.008 | [10] 0 | ralimetinib 0.051 | [11] -0.054 | [12] -0.258 | [13] 0.086 | pinometostat 0.169 | [14] -0.049 | [15] 0.27

PLPP6 (UniProt Q8IY26)
inactive: erlotinib 0.095 | [1] 0.176 | [2] 0.062 | [3] 0.083 | [4] -0.197 | [5] 0.017 | [6] 0.014 | [7] -0.054 | [8] -0.105 | [9] 0.066 | IRAK-1-4 Inhibitor I -0.149 | ibrutinib -0.098 | [10] 0.111 | ralimetinib 0.019 | [11] -0.099 | [12] 0.01 | [13] -0.071 | pinometostat -0.02 | [14] 0.012 | [15] -0.148
